Experimental data published in PubChem BioAssay AID2551 (National Center for Advancing Translational Sciences (NCATS), 2010).
“And” between values parts separate entries of the source, which are not always exact repeats. Equal entries are not always repeated. Among all 310,000 compounds or so, about 17,000 (5.5%) were called active. The inconclusive results got no clear call from the source; some entries with a clear call stand among them for comparison. Calls come from the whole dose curve; as a rule, active = well fitted inhibition curve with a large enough effect; inconclusive = small, poorly fitted or top-dose-only effect, or effect the other way; inactive = no such curve, though single readings can be large or run the other way. A potency beside an inconclusive call is a rough fit, not a confirmed value.

Amino acid sequences for entries named in this document (tags omitted). A change or cut given only in a name is not applied to a line headed by its entry.
UniProt P51450: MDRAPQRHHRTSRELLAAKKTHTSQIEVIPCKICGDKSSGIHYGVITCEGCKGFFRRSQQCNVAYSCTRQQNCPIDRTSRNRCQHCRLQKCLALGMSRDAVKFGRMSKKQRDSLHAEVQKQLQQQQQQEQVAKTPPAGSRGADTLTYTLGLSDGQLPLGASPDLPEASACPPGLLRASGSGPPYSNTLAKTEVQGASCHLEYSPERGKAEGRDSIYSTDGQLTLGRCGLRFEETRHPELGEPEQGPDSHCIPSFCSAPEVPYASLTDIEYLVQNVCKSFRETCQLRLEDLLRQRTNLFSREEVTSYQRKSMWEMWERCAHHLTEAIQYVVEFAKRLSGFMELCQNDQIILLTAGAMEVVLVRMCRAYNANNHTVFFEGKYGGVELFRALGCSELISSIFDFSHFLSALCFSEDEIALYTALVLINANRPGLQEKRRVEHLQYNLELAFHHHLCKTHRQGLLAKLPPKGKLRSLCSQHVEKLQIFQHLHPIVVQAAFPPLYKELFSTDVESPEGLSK

Molecular target: Nuclear receptor ROR-gamma (Mus musculus) (UniProt P51450)
Assay: qHTS for inhibitors of ROR gamma transcriptional activity; note: nearly all actives have a fitted effect of over 60% in size
Conditions: Drosophila S2 Gal4-RORgamma UAS-luciferase reporter, 20 h; activity change, negative = inhibition: at 53.6 µM (top of the series)
Procedure, shortened: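 Compounds are pin-transferred onto Drosophila Schneider cells expressing a copper-inducible Gal4–ROR gamma transactivation domain fusion. After 1 hr, copper sulfate is added to 700 uM final; luciferase is read 20 hr later.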
% is set by controls: 0 for no effect and ±100 for the full control effect; potency is the fitted concentration of half-maximal effect.

Potency, inconclusive:
CCOc1ccc(C(=O)NC2=NCCS2)cc1 35.5 µM [inhibitor, single point], CCOc1ccc(-c2nnn(CC(=O)c3ccc4c(c3)OCCO4)n2)cc1 10 µM [activator, partial curve], Cc1cc2occ(CC(=O)Nc3nccs3)c2cc1C(C)C 11.2 µM [inhibitor, single point], CCN(CC)C(=O)CSc1ncnc2sc(C)c(C)c12 35.5 µM [activator, single point], CN(c1ccccc1)S(=O)(=O)c1cccc(NC(=O)Cn2cnc3ccccc3c2=O)c1 35.5 µM [activator, single point], CNc1ccc(/C=C2\CSc3ccccc3C2=O)cc1[N+](=O)[O-] 0.158 µM [activator, full curve, poor fit], O=C(c1ccc(Cl)cc1)N1CCC(O)(CSc2ccc(Cl)cc2)CC1 12.6 µM [activator, partial curve], Cc1ccc(N2C(=O)C3CCC(c4ccccc4)CC3C2=O)cc1 (configuration not stated) 10 µM [activator, partial curve], Cc1ccc(NC(=O)c2ccc(N3C(=O)C4CC=C(Cl)CC4C3=O)cc2)cc1 (configuration not stated) 8.91 µM [activator, single point], CCOCCCn1c(NN)nc2ccccc2c1=O 25.1 µM [inhibitor, single point], NC(=O)CC(NC(=O)c1ccccc1)c1ccc(NCC2CC2)c([N+](=O)[O-])c1 (configuration not stated) 7.08 µM [activator, partial curve], N=c1n(CCN2CCCC2)c2ccccc2n1CC(O)c1ccc(Cl)c(Cl)c1 (configuration not stated) 35.5 µM [inhibitor, single point], CCNS(=O)(=O)c1ccc(NC(=O)c2ccc(Cn3cc(Br)cn3)o2)cc1 11.2 µM [activator, partial curve], COc1ccc(OC)c(-c2cc(C(=O)N3CCN(c4ncccn4)CC3)c3ccccc3n2)c1 22.4 µM [activator, single point], Cc1cccc(C)c1OCc1nc2ccccc2c(=O)n1/N=C/c1c[nH]c2ccccc12 8.91 µM [activator, partial curve], Cc1cnc(NC(=O)CCCSc2nc3ccccc3s2)s1 17.8 µM [inhibitor, single point], O=C(c1ccc2c3n(nc2c1)-c1ccccc1CO3)N1CCOCC1 15.8 µM [inhibitor, single point], COc1ccc(C(c2c(C)n(C)n(-c3ccccc3)c2=O)c2c(C)n(C)n(-c3ccccc3)c2=O)c(OC)c1OC 4.47 µM [inhibitor, single point], COc1ccc(OC)c(NC(=O)c2cc3ccccc3cc2OC)c1 14.1 µM [activator, partial curve], NC(=O)COC(=O)c1ccc(Cl)c(S(=O)(=O)N2CCN(c3ccc(F)cc3)CC2)c1 35.5 µM [inhibitor, single point], O=C(NCc1ccc(Cl)cc1)c1noc2c1CCCC2 35.5 µM [activator, single point], CCN(CC)CCOc1ccc(C(O)(Cc2ccc(Cl)cc2)c2ccc(C)cc2)cc1 (configuration not stated) 35.5 µM [inhibitor, single point] and 3.98 µM [inhibitor, partial curve, poor fit], Cc1nn(-c2ccccc2)cc1/C=N/NC(=O)c1cccs1 35.5 µM [inhibitor, single point], FC(F)(F)c1cc(-c2ccccn2)nc2cc(-c3ccccc3)nn12 3.55 µM [activator, single point], Cc1nc2nc(SCC(=O)c3cccc([N+](=O)[O-])c3)[nH]c2cc1Br 35.5 µM [inhibitor, single point], CCn1c(C(=O)N2CCCC(C(=O)NCCc3ccc(C)cc3)C2)cc2sccc21 (configuration not stated) 14.1 µM [activator, single point]

Potency, inactive:
CCCC[C@H](NC(=O)[C@H](CC(C)C)NC(=O)[C@@H](Cc1c[nH]c2ccccc12)NC(=O)[C@H](Cc1ccccc1)NC(=O)[C@@H](Cc1c[nH]c2ccccc12)NC(=O)[C@H](CC(N)=O)NC(=O)[C@@H](Cc1c(Cl)cccc1Cl)NC(=O)[C@@H]1CCCN1C(=O)[C@H](Cc1ccccn1)NC(=O)[C@@H]1CCCN1C(=O)[C@H](N)CCCCNC(=O)c1cccnc1)C(N)=O, CC[n+]1c(C)cc2c(sc3ccccc32)c1C, Cc1ccc(Sc2ccc(/C=N/O)cc2[N+](=O)[O-])cc1, O=[N+]([O-])c1cc(N(CCO)CCO)ccc1NCCO, Cc1ccc(NC(=O)c2cc(N3C(=O)C4CC=CCC4C3=O)ccc2N2CCCCC2)cc1 (configuration not stated), CCC(=O)Nc1cc(C(F)(F)F)ccc1N1CCOCC1

Potency, active:
Nc1c(-c2ccccn2)cnn1-c1nc(-c2ccc(F)cc2)cs1 5.01 µM, Cc1cccc(NC(=S)NCc2ccc(F)cc2)c1C 3.55 µM, Cc1cc(Br)ccc1NC(=O)CNC(=O)CN(C)Cc1nc2ccccc2c(=O)[nH]1 12.6 µM, CCOC(=O)c1cnc(-n2nc(C)cc2C)nc1NNc1cc(C)nc(-c2ccccc2)n1 0.1 µM, N#CCCN(Cc1ccccc1)C(=S)NC(=O)c1ccccc1 0.355 µM, Cc1cc(C)c2nc(Nc3nc(-c4ccccc4)cc(=O)[nH]3)nc(C)c2c1 0.631 µM, C=CCNC(=S)N/N=C(\C)c1cccnc1 3.16 µM, O=C(NNC(=S)NC(=O)c1cccc([N+](=O)[O-])c1)c1ccc(O)cc1 12.6 µM, NC(=S)NNc1ccc(Cl)c(Cl)c1 6.31 µM

Activity change, negative = inhibition, inactive:
COc1cccc(C(=O)Nc2nc(-c3ccc(S(=O)(=O)N4CCOCC4)cc3)cs2)c1 -26.5% [at 0.365 µM]
